The values below come from publication PMC4546667.

Sequences of proteins named here, by UniProt entry; tags and fusion partners are left off. A change or cut given only in a name is not applied to a line headed by its entry. A line that says so, or that is headed by a name, gives the form on record, which may keep a tag or linker. Residues count along the entry.
A1AT-M (the wild-type form of alpha-1 antitrypsin) (P01009, residues 25-418): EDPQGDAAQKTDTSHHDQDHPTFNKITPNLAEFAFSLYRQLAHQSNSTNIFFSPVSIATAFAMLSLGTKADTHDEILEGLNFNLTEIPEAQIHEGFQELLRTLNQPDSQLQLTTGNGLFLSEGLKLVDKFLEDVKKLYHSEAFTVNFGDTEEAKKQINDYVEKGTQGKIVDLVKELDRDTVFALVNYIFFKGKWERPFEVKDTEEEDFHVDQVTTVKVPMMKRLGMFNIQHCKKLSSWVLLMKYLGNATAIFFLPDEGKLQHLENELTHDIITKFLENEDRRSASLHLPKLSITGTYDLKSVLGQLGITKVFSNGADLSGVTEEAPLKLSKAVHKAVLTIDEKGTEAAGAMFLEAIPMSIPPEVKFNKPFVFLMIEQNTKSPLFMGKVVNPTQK
A1AT-Z (the disease-causing E342K variant of alpha-1 antitrypsin) (P01009, form named): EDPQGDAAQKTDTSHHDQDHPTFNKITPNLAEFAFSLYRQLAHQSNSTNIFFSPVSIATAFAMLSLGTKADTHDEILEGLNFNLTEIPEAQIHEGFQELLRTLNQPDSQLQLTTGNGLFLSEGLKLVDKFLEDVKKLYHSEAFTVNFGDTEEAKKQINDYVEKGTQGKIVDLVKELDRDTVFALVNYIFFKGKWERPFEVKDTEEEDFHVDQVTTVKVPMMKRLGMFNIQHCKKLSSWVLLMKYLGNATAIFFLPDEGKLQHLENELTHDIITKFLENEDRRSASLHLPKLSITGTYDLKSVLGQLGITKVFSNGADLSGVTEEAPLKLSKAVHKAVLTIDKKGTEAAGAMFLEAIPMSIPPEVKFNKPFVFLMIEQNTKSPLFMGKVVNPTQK

No constants are given. Whether binding was seen depends on the method and setting. In cells and extracts the contact can be indirect. Some entries that bind do so weakly or less than the wild type. Sequences can lack the tags named with a protein.

This assay concerns the target T1, FLAG-tagged full-length FBG1 (UniProt Q9UK22).
T1 sequence: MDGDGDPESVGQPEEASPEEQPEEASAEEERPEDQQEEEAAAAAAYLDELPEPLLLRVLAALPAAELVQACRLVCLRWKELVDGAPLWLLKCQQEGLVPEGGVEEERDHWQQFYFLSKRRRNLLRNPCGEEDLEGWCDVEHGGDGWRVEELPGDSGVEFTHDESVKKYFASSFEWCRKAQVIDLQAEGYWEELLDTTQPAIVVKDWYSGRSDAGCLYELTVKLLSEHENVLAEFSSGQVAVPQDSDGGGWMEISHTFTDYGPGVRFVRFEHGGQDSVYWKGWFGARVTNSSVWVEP
The assay can be described thus: co-IP; Hepa1-6 cells co-transfected with FLAG-FBG1 or FLAG-FBG1ΔN (or empty pCMV) and A1AT variants; lysed 48 h later in FLAG lysis buffer (50mM Tris pH 7.4, 150mM NaCl, 1mM EDTA, 1% Triton X-100); anti-FLAG M2 affinity gel, 4°C, 2 hours; eluted with 3xFLAG peptide; blot with anti-A1AT.

On to “A1AT-M (the wild-type form of alpha-1 antitrypsin) (from UniProt P01009 25-418)”, for which the binding result is on record as “binds weakly”.
With “A1AT-Z (the disease-causing E342K variant of alpha-1 antitrypsin) (from UniProt P01009 25-418)” the entry was “binds”.
